Source: US20180346592A1
Changes are numbered by the printed parent chain. These are yes or no findings as the source states them, for the method shown. Some results given as binding are weak or reduced against the parent protein; the word gives no strength.

Protein sequences, listed by entry. Tags and fused reporters are not part of them. Lines headed by an entry give the natural chain unless they say otherwise; changes in a name come on top.
UniProt P51654: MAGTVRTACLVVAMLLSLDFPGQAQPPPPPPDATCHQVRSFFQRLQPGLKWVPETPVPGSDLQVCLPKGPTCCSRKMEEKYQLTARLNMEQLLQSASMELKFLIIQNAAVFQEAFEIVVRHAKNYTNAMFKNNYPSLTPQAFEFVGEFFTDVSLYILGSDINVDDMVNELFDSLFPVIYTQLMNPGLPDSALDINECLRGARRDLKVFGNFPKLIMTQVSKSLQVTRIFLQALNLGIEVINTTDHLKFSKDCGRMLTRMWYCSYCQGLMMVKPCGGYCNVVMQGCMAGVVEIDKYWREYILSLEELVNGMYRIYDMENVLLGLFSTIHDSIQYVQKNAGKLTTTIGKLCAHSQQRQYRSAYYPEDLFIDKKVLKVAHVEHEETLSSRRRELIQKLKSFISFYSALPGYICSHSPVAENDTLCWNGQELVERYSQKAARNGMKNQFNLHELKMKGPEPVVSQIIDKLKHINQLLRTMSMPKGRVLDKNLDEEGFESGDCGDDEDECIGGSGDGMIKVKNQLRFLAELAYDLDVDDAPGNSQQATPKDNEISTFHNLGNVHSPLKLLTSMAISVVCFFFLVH

B1: clone GX270 (scFv, V domains shown)
VH: QVQLVQSGAEVKKPGASVKVSCKTSGYTFTSSYMHWVRQAPGQGLEWMGIINPNSRGTNYAQKFQGRVTMTSDTSISTAYMELSSLISDDTAVYYCASSSGDYPDYWGQGTLVTVSS
VL: SYELTQPPSVSVSPGQTARIACSGDALPKHYAYWYQQKSGQAPVLVVYEDKKRPAGIPERFSGSSSGTVATLTISGAQVEDEAHYYCYSTDTSGNHRVFGGGTKLTVLG
B2: clone GS001 (scFv, V domains shown)
VH: EVQLLESGGGLVQPGGSLRLSCAASGFTFSSYSMSWVRQAPGKGLEWVSGISPSGGNKYYADSVKGRFTISRDNSKNTLYLQMNSLRAEDTAVYYCARALLGCKSAYCYYAMDVWGQGTLVTVSS
VL: QSVLTQPPSASGTPGQRVTISCTGSSSNIGSNAVNWYQQLPGTAPKLLIYADSKRPSGVPDRFSGSKSGTSASLAISGLRSEDEADYYCGSWDSSLSGYVFGGGTKLTVLG
B3: clone GS002 (scFv, V domains shown)
VH: EVQLLESGGGLVQPGGSLRLSCAASGFTFSGYSMSWVRQAPGKGLEWVSSISPGGSSTYYADSVKGRFTISRDNSKNTLYLQMSSLRAEDTAVYYCARYRVWHMTTGDYYSNAMDVWGQGTLVTVSS
VL: B2 VL with N35S, A51D, S53N, P60L, S91T, S94D
B4: clone GS004 (scFv, V domains shown)
VH: EVQLLESGGGLVQPGGSLRLSCAVSGFTFSNYSMSWVRQAPGKGLEWVSAISPGSSNKYYADSVKGRFTISRDNSKNTLYLQMNSLRAEDTAVYYCARYRVWAHSASSSYSNAMDVWGQGTLVTVSS
VL: B2 VL with T23S, S31N, A33D, N35S, A51S, K54Q, S94D, S97N
B5: clone GX107 (scFv, V domains shown)
VH: QMQLVQSGAEVKKPGASVKVSCKASGYTFTSYYMHWVRQAPGQGLEWMGIINPSGGSTSYAQKFQGRVTMTRDTSTSTVYMELSSLRSEDTAVYYCARSHGDYPEDYWGQGTLVTVSS
VL: YELTQPPSVSVSPGQTARIACSGDALPKHYAYWYQQKSGQAPVLVVYEDKKRPAGIPERFSGSSSGTVATLTISGAQVEDEAHYYCYSTDTSGNHRVFGGGTKLTVLG
B6: clone GS005 (scFv, V domains shown)
VH: EVQLLESGGGLVQPGGSLRLSCAASGFTFSNYAMSWVRQAPGKGLEWVSVISPDSSSKYYADSVKGRFTISRDNSKNTLYLQMNSLRAEDTAVYYCARAAVRRYGPSPYYYYAMDVWGQGTLVTVSS
VL: B2 VL with S31N, A33Y, N35T, K54H, G90A, S91T, S94Y
B7: clone GS006 (scFv, V domains shown)
VH: EVQLLESGGGLVQPGGSLRLSCAASGFTFSGYSMSWVRQAPGKGLEWVSAISPGGGSKYYADSVRGRFTVSRDNSKNTLYLQMNSLRAEDTAVYYCARYRVQKSAKNVYSSNGMDVWGQGTLVTVSS
VL: B2 VL with S9P, T23S, S31N, A51Y, K54N, S91A, G98A
B8: clone GS007 (scFv, V domains shown)
VH: EVQLLESGGGLVQPGGSLRLSCAASGFTFSNYSMSWVRQAPGKGLEWVSVISHDGRSKYYADSVKGRFAISRDNSKNTLYLQMNSLRAEDTAVYYCAKFRVWKRTNAHSYANAMDVWGQGTLVTVSS
VL: B2 VL with V18A, A33S, N35S, D52N, K54N, S91T, S94A, G98A
B9: clone GS008 (scFv, V domains shown)
VH: EVQLLESGGGLVQPGGSLRLSCAASGFTFSNYAMSWVRQAPGKGLEWVSVISPDNGSTYYADSVKGRFTISRDNSKNTLYLQMNSLRAEDTAVYYCARARVHCRRDQCYSYGMDVWGQGTLVTVSS
VL: B2 VL with A33N, N35T, D52N, K54Q, S91A, S97N
B10: clone GS009 (scFv, V domains shown)
VH: EVQLLESGGGLVQPGGSLRLSCAASGFTFSNYSMSWVRLAPGKGLEWVSVISPSGGNTYYADSVKGRFTISRDNSKNTLYLQMNSLRAEHTAVYYCARYRVKQMLNQRSYSNAMDVWGQGTLVTVSS
VL: B2 VL with S31N, A33Y, N35S, A51D, K54Q, S94A
B11: clone GS010 (scFv, V domains shown)
VH: EVQLLESGGGLVQPGGSLRLSCAASGFTFSNYSMSWVRQAPGKGLEWVSVISPSSGSIYYADSVKGRFTISRDNSKNTLYLQMNSLRAEDTAVYYCARYRVRQLKHTRSYADAMDVWGQGTLVTVSS
VL: B2 VL with T13A, T23S, N35S, D52N, K54H, A85T, G90A
B12: clone GS014 (scFv, V domains shown)
VH: EVQLLESGGGLVQPGGSLRLSCAASGFTFSNYAMSWVRQAPGKGLEWVSVISPNSGSNTYYADSVKGRFTISRDNSKNTLYLQMNSLRAEDTAVYYCARPRILRRRVDHSYSYAMDVWGQGTLVTVSS
VL: B2 VL with S31N, A33Y, N35S, A51S, D52N, K54H, S91T, S94Y, F101L
B13: clone GS015 (scFv, V domains shown)
VH: EVQLLESGGGLAQPGGSLRLSCAASGFTFSDYSMSWVRQAPGKGLEWVSAISPDGGSKYYADSVKGRFTISRDNSKNTLYLQMNSLRAEDTAVYYCARFRVIKLRAGWYSANGMDVWGQGTLVTVSS
VL: B2 VL with T23S, S31N, A33D, N35S, A51Y, D52N, S91A, S94D, S97N
B14: clone GS017 (scFv, V domains shown)
VH: EVQLLESGGGLVQPGGSLRLSCAASGFTFSGYAMSWVRQAPGKGLEWVSGISPGDGSTYYADSVKGRFTISRDNSKNTLYLQMNSLRAEDTAVYYCARVARMCQGWRCSYADGMDVWGQGTLVTVSS
VL: B2 VL with S31N, A33S, N35Y, A51S, K54H, S91T
B15: clone GN328 (scFv, V domains shown)
VH: EVQLVESGGGLVQPGGSLRVSCAASGFTFSTAWMDWVRQAPGKGLEWVANINPDGSEKHYVDSVKGRFTVSRDNAKNSVYLHMNNLRAEDTAVYYCSKALDYWGQGTTVTVSS
VL: DIQMTQSPSTLSASVGDRVTITCRASQNINTWLAWYQQKPGKAPEVLIYEASSLESGVPPRFSGSGSGTEFTLTISSLQPDDSATYYCQQYNTYSPTFGQGTKLEIKR
B16: clone GN414 (scFv, V domains shown)
VH: QVQLVQSGAEVKKPGASVKVSCKASGYTFSTYGITWVRQAPGQGLEWMGRITPNNGVTDYAQKFQGRVTMTRDTSISTAYMELSSLRSDDSAVYYCAREIGSSSWKLLDPWGQGTMVTVSS
VL: QAVLTQPSSVSVSPGQTASITCTGNSNNVGYEGAAWVQQYQGHPPKLLSDRNHNRPSGISERFSASRSGNTASLTITGLQSEDEADYYCSAWDSSLSEWVSGGGTKLTVLG
B17: clone GX116 (scFv, V domains shown)
VH: QVQLVQSGAEVKKPGASVKVSCKASGYTFTSYYMHWVRQAPGQGLEWMGIINPSGGSTSYAQKFQGRVTMTRDTSTSTVYMELSSLRSEDTAVYYCARVMVRGVSTFGYWGQGTLVTVSS
VL: QSVLTQPPSVSAAPGQKVSISCSGSSSNIGKNFLSWYQQLPGTAPHLLIYRNNRRPSGIPDRFSGSKSGTSATLTITGLQTGDEGDYYCGAWDSRLSGVVFGGGTKLTVLG
B18: clone GX118 (scFv, V domains shown)
VH: QLQLQESGPGLVKPSETLSLTCTVSGGSISSSSYYWGWIRQPPGKGLEWIGSIYYSGSTYYNPSLKSRVTISVDTSKNQFSLKLSSVTAADTAVYYCARLRSFADNYVWGSYASYYFDYWGRGTLVTVSS
VL: QSVVTQPPSVSAAPGQRVTISCSGSSSNIGNNFVSWHQQLPGTAPKLLIYDNNKRPSGIPDRFSGSKSGTSATLGITGLQTGDEADYYCGTWDNSLGTGVFGGGTKLTVLG

Molecular target: human GPC3 (GPC3 antigen coated for panning and ELISA) (human) (UniProt P51654)
Test: ELISA, clone culture supernatant on GPC3-coated plate

Binder | binding
B1 | binds
B2 | binds
B3 | binds
B4 | binds
B5 | binds
B6 | binds
B7 | binds
B8 | binds
B9 | binds
B10 | binds
B11 | binds
B12 | binds
B13 | binds
B14 | binds
B15 | binds
B16 | binds
B17 | binds
B18 | binds
